Results taken from PubChem BioAssay AID1347076 (National Center for Advancing Translational Sciences (NCATS), 2019).
Values joined by “and” are separate entries in the source; they are usually repeats but may differ in a detail not shown here. Equal entries are not always repeated. Screen size: about 400,000 compounds; about 13,000 (3.2%) were called active. This list was built around the results that the source calls inconclusive (neither active nor inactive); the mix of calls is not that of the screen. Calls follow the shape of the dose curve; as a rule, active = well fitted cell-killing curve with a large enough effect; inconclusive = small, poorly fitted or top-dose-only effect, or effect the other way; inactive = flat fitted curve, though single readings scatter. Potencies beside an inconclusive call are fits to weak or partial responses and may not hold up.
% is scaled to controls: 0 for no effect and ±100 for the full control effect; potency is read from the fitted curve at half-maximal effect.

Experiment: qHTS assay for MDR1-selective chemotherapeutics: Primary screen using the drug-selected MDR subline cells KB-V1; also: nearly all actives have a fitted effect of over 60% in size
Details: KB-V1 MDR cells viability, CellTiter-Glo, 72 h; activity change, negative = cytotoxicity: at 46.1 µM (top of the series)
Summary of the method: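 Cytotoxicity via CellTiter-Glo luminescence after 72 h compound exposure at 37 degrees C. Cells: drug-selected KB-V1 line, DMEM phenol-red free plus 10% FBS. Compounds tested at multiple concentrations; normalized data fitted to concentration-effect curves.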
In the case of `CC(=O)Oc1ccc(C(=O)Nc2ccc3c(c2)OCCO3)cc1`, the Potency is reported as inconclusive: 16.4 µM [cytotoxic, partial curve]. In the case of `COCCc1nn2c(=O)cc(COC(=O)c3ccco3)nc2s1`, the Potency is reported as inconclusive: 6.51 µM [rising, full curve, poor fit]. In the case of `COc1cccc(-c2nn(C)c3sc(C(=O)NCc4ccc(C)o4)cc23)c1`, the Potency is reported as inconclusive: 20.6 µM [cytotoxic, partial curve, poor fit] and inconclusive: 29.1 µM [cytotoxic, partial curve, poor fit]. In the case of `Cc1ccc(Cc2c(-c3ccc(Cl)cc3)nc3cc(C)ccn23)cc1`, the Potency is reported as inconclusive: 14.6 µM [cytotoxic, single point]. With `Cn1nc(-c2ccccc2F)c2cc(C(=O)N3CCN(C(=O)c4ccco4)CC3)sc21` the Potency was inconclusive: 25.9 µM [cytotoxic, partial curve, poor fit]. With `Cc1ccc(C(C)C)c(OCc2ccc(C(=O)N/N=C/c3ccc(O)c(O)c3)cc2)c1` the Potency was inconclusive: 20.6 µM [cytotoxic, partial curve]. In the case of `COc1ccc(-c2cc(=O)c3c(OC)c(OC)c(OC)c(OC)c3o2)cc1`, the Potency is reported as inconclusive: 29.1 µM [cytotoxic, single point]. For `Cc1cccc(-c2nc3ccccc3c(=O)n2NC(=O)c2ccc([N+](=O)[O-])c(C)c2)c1`, the Potency was inconclusive: 10.3 µM [cytotoxic, partial curve]. In the case of `CC(=O)c1ccc(OCC(=O)N2CCCC(Nc3ccc(C)c(C)c3)C2)cc1` (configuration not stated), the Potency is reported as inconclusive: 9.2 µM [cytotoxic, partial curve, poor fit]. In the case of `COc1ccc(C)cc1S(=O)(=O)N(C)CC(=O)N1CCCC1`, the Potency is reported as “inactive”. For `CCc1cc2c(=O)n(C(C)C(=O)OC3CCCCC3)cnc2s1` (configuration not stated), the Potency was inconclusive: 29.1 µM [cytotoxic, single point]. For `CCCCCCCCSC1=CC(=O)C(OC)=C(OC)C1=O`, the Potency was inconclusive: 14.6 µM [cytotoxic, partial curve, poor fit]. For `O=C(N/N=C/c1cccnc1)c1cccc(N2CCCC2=O)c1`, the Potency was inconclusive: 18.4 µM [rising, partial curve, poor fit]. For `CCCCN1C(=O)C(CC(=O)NCc2cccc3ccccc23)CC(C(=O)N(C(C)C)C(C)C)=C1C` (configuration not stated), the Potency was inconclusive: 5.8 µM [cytotoxic, partial curve]. In the case of `Cc1c(C(=O)N2CCN(C/C=C/c3ccccc3)CC2)oc2c(F)cccc12`, the Potency is reported as active: 16.4 µM. For `CCN(c1ccccc1)S(=O)(=O)c1cccc(C(=O)N(C)CCOc2ccccc2)c1`, the Potency was inconclusive: 5.8 µM [cytotoxic, full curve]. For `Cc1occc1-c1nnc(SCC(=O)NC2CCCC2)n1-c1ccccc1`, the activity change, negative = cytotoxicity was inconclusive: -33.5% [cytotoxic]. In the case of `COc1ccccc1CCNCc1ccc(OC)c(OCc2ccccc2)c1`, the Potency is reported as active: 4.61 µM. For `CS(=O)(=O)CCC(C(=O)OCc1ccc(Cl)cc1)N1C(=O)c2ccccc2C1=O` (configuration not stated), the Potency was inconclusive: 18.4 µM [cytotoxic, partial curve, poor fit]. With `COC(=O)c1ccc(C)c(NC(=O)Cc2coc3cc(OC)ccc23)c1` the Potency was inconclusive: 16.4 µM [cytotoxic, partial curve]. For `CC(C(=O)Nc1cccc(C#N)c1)N(C)CCOc1ccccc1` (configuration not stated), the Potency was “inactive”. With `CC1(C(=O)NCc2ccccc2Br)CCN1Cc1c(F)cccc1F` (configuration not stated) the Potency was inconclusive: 20.6 µM [cytotoxic, partial curve, poor fit]. In the case of `CCCn1nc(C(=O)NC2CCCc3ccccc32)c2ccccc2c1=O` (configuration not stated), the Potency is reported as active: 23.1 µM. With `Cc1nonc1-c1ccc2c(c1)OCO2` the Potency was inconclusive: 29.1 µM [rising, single point]. For `Cc1cc(C)c2oc(C(=O)Nc3c(C(=O)c4ccccc4)oc4ccccc34)cc(=O)c2c1`, the Potency was “inactive”. With `O=C(COc1ccc(S(=O)(=O)N2CCOCC2)cc1)NCC1CCCO1` (configuration not stated) the Potency was inconclusive: 5.17 µM [rising, partial curve, poor fit]. In the case of `CC1=C(C(N)=O)C(c2ccccc2F)n2nc(-c3ccc(Cl)cc3)nc2N1` (configuration not stated), the Potency is reported as “inactive”. For `Cc1ccc(NC(=O)CSc2nc(N)c3c4c(sc3n2)CSC(C)(C)C4)cc1`, the Potency was inconclusive: 18.4 µM [cytotoxic, single point]. For `CCc1cc(C(=O)Nc2ncccc2O)sc1C`, the Potency was inconclusive: 32.6 µM [cytotoxic, single point]. With `CC(CC(=O)Nc1ccccc1)NCCCN1CCCC1=O` (configuration not stated) the Potency was inconclusive: 23.1 µM [rising, partial curve, poor fit]. In the case of `O=C(CN1CCN(C(=O)c2cc(C3CC3)nn2-c2ccccc2)CC1)Nc1ccc(F)cc1`, the Potency is reported as inconclusive: 5.8 µM [cytotoxic, partial curve]. In the case of `Cc1ccc(CN(c2ccc(C(=O)Nc3cccnc3)cc2)S(C)(=O)=O)cc1`, the Potency is reported as inconclusive: 14.6 µM [cytotoxic, partial curve]. With `CN1CCN(CCCNC(=O)c2ccc(/C=C3/Sc4ccccc4N(Cc4cccc(Cl)c4)C3=O)cc2)CC1` the Potency was inconclusive: 20.6 µM [cytotoxic, single point]. For `COc1ccc(-c2ccc(-c3nc4ccc(C)cn4c3NC3CCCCC3)cc2OC)cc1`, the Potency was active: 16.4 µM and inconclusive: 29.1 µM [cytotoxic, single point]. In the case of `O=C(Nc1cccc(S(=O)(=O)C(F)F)c1)c1ccc(S(=O)(=O)N2CCCCC2)cc1`, the Potency is reported as inconclusive: 4.11 µM [cytotoxic, full curve, poor fit]. With `COc1cc(C(=O)Nc2ccc(Br)cc2C(=O)c2cc(OC)c(OC)c(OC)c2)cc(OC)c1OC` the Potency was inconclusive: 8.2 µM [cytotoxic, partial curve, poor fit]. For `CCc1ccccc1NC(=O)CCc1nc(-c2ccc(C)cc2)no1`, the Potency was “inactive”. For `Cc1ccc2c(c1)=N/C(=N\c1[nH]c(O)c3ccccc13)N=2`, the Potency was inconclusive: 29.1 µM [cytotoxic, single point]. With `NS(=O)(=O)c1ccc(NC(=O)CN2CCc3ccccc3C2)cc1` the Potency was “inactive”. For `Cc1ccc(C)c(NC(=O)CN(C)C(=O)c2nn(C)c(=O)c3ccccc23)c1`, the Potency was inconclusive: 29.1 µM [cytotoxic, single point]. In the case of `CCc1cccc(NC(=O)CCc2c(C)nn(-c3ccc(N4CCCCC4)nn3)c2C)c1`, the Potency is reported as “inactive”. In the case of `Cc1ccc(NC(=O)CSc2nc3c(cc2C#N)C(=O)CCC3)cc1S(=O)(=O)N(C)C`, the Potency is reported as “inactive”. With `O=C(COc1ccccc1F)NNC(=O)c1cccc(-n2cccc2)c1` the Potency was “inactive”. With `CC(=O)N1CCN(c2ccccc2NC(=O)c2ccc(Br)o2)CC1` the Potency was inconclusive: 29.1 µM [cytotoxic, single point]. In the case of `O=[N+]([O-])c1cccc(/C=N/Nc2nc(NCc3ccccc3)nc(N3CCOCC3)n2)c1`, the Potency is reported as “inactive”. For `COc1ccc(-c2nnc(CSc3nnc(-c4ccncc4)n3C3CCCCC3)o2)cc1OC`, the Potency was active: 13 µM. For `C=CCc1ccccc1OCC(O)CNC(=O)c1ccccc1C(=O)O` (configuration not stated), the Potency was “inactive”. In the case of `CCOC(=O)CSc1nc2c(c(=O)[nH]1)C(C)(CC)Cc1ccccc1-2` (configuration not stated), the Potency is reported as inconclusive: 16.4 µM [cytotoxic, single point]. With `COc1ccc(CC(=O)Nc2ccc(OC)nc2)cc1` the Potency was “inactive”. With `CS(=O)(=O)n1c2ccccc2c(=O)n1-c1ccccc1CCl` the Potency was “inactive”. With `Cc1ccc(-n2c(-c3ccccc3)c[nH]c2=S)cc1` the Potency was inconclusive: 18.4 µM [cytotoxic, single point]. For `CC(=O)Cc1nsc(NC(=O)c2ccc(-c3cccc(C(F)(F)F)c3)o2)n1`, the Potency was active: 5.8 µM. In the case of `COc1ccc(Cl)cc1NC(=O)C(C)Sc1nnc(C2CC2)n1C1CC1` (configuration not stated), the Potency is reported as active: 18.4 µM. In the case of `O=C1CN(C(=O)c2ccc(S(=O)(=O)N3CCCC3)cc2)C(c2ccccc2)c2cc(Cl)ccc2N1` (configuration not stated), the Potency is reported as “inactive”. In the case of `C=CS(=O)(=O)N(Cc1ccccc1Br)[C@H](CO)Cc1ccccc1`, the Potency is reported as inconclusive: 20.6 µM [cytotoxic, single point] and inconclusive: 29.1 µM [cytotoxic, single point]. For `O=C(CN1CCN(C(=O)N2CCOCC2)CC1)Nc1ccc(Br)cc1`, the Potency was “inactive”. For `CCCCCCCCN1C(=O)[C@H](CC(=O)NCCCOCCCC)C[C@@]2(C(=O)OC)CCCCC=C12`, the Potency was active: 13 µM. With `Cc1cccc2c(=O)c(-c3ccc(Cl)cc3)c(NC(=O)c3ccco3)oc12` the Potency was inconclusive: 25.9 µM [cytotoxic, single point]. In the case of `O=C(Nc1nc(-c2ccc(Cl)cc2)cs1)C1CCCO1` (configuration not stated), the Potency is reported as “inactive”. For `COc1cccc(C(=O)Nc2ccc3nc4n(c(=O)c3c2)CCCCC4)c1`, the Potency was inconclusive: 18.4 µM [cytotoxic, single point]. For `Cc1ccc(S(=O)(=O)NCc2c(-c3ccccc3)noc2C)cc1`, the Potency was inconclusive: 10.3 µM [cytotoxic, partial curve]. For `Cc1ccc(O)c(Nc2nc3ccccc3c3nncn23)c1`, the Potency was “inactive”. For `COc1ccc(C(=O)Nc2nc(-c3nnn(-c4ccc(F)cc4F)c3C)ns2)cc1`, the Potency was inconclusive: 20.6 µM [cytotoxic, single point]. For `COc1ccc(CCNS(=O)(=O)c2ccc(OC)cc2)cc1`, the Potency was inconclusive: 29.1 µM [cytotoxic, single point]. In the case of `COc1ccccc1C(=O)COC(=O)CCCN=C1NS(=O)(=O)c2ccccc21`, the Potency is reported as inconclusive: 18.4 µM [rising, partial curve, poor fit]. With `COc1cccc(C2c3cc4c(cc3OC(N3CCCC3)C2C)OCO4)c1O` (configuration not stated) the Potency was active: 8.2 µM. For `Cc1ccc(CNC(=O)Cn2cnc(S(=O)(=O)N3CCC(C)CC3)c2)o1`, the Potency was inconclusive: 4.11 µM [rising, single point].
